Results reported in PubChem BioAssay AID248 (DTP/NCI, 2004).
The list does not hold the whole screen: it gathers tests that were run many times, whatever their T/C, doses with no T/C, and many T/C values between a quarter and a half above the control. Further doses and runs are listed elsewhere. T/C: endpoint of the treated group in % of that of the vehicle group. Some doses have a count of surviving animals in place of a T/C: the source holds a T/C of zero for them, seemingly a mark for toxic or unscored doses. Some doses without a T/C left all or most animals alive at the check, yet need not have been tolerated: survival well below the control is almost never listed, so the zero probably covers shortened survival too. Survivors were counted at the toxicity check, usually on the fifth day, unless a day is given; later deaths do not show. Schedule codes are those of the source, taken here to give the interval after Q, in days (D) or hours (H), and the number of doses after X. For survival time, the PubChem record calls one and a half times the control and up active, and a quarter to a half above the control has no call in these data; cut-offs in other NCI protocols can differ.

Tested on: L1210 leukemia ip in BDF1 mice, survival T/C
Test: NCI In Vivo Anticancer Drug Screen. Data for tumor model L1210 Leukemia (intraperitoneal) in B6D2F1 (BDF1) mice
Conditions: T/C endpoint: mean survival time, higher T/C = longer survival

**Q.** For CC1(c2ccc(C(O)c3ccccc3)s2)OCCO1 (stereo not drawn), which T/C (dose: 150.0 mg/kg/injection, schedule: Q01DX001 (ip), vehicle: carboxymethylcellulose (CMC)) is on record?
**A.** 125 % of control

**Q.** And the survivor count (dose: 150.0 mg/kg/injection, schedule: Q04DX003 (ip), vehicle: Klucel (hydroxypropylcellulose) (HPC))?
**A.** 4 of 6

**Q.** And the survivor count (dose: 300.0 mg/kg/injection, schedule: Q01DX001 (ip), vehicle: carboxymethylcellulose (CMC))?
**A.** 1 of 6

**Q.** Which results are given for CCC(/C=C1\Oc2ccc(-c3ccccc3)cc2N1CC)=C\c1oc2ccc(-c3ccccc3)cc2[n+]1CC?
**A.** T/C (dose: 1.2 mg/kg/injection, schedule: Q01DX009 (ip), vehicle: other): 138 % of control; T/C (dose: 1.8 mg/kg/injection, schedule: Q01DX009 (ip), vehicle: other): 132 % of control; T/C (dose: 4.0 mg/kg/injection, schedule: Q01DX009 (ip), vehicle: other): 126 % of control; T/C (dose: 9.5 mg/kg/injection, schedule: Q01DX001 (ip), vehicle: other): 125 % of control; survivor count (dose: 38.0 mg/kg/injection, schedule: Q01DX001 (ip), vehicle: other): 0 of 6

**Q.** Which survivor count (dose: 25.0 mg/kg/injection, schedule: Q04DX003 (ip), vehicle: saline) does the source give for c1ccc([P+](c2ccccc2)(c2ccccc2)c2ccc([P+](c3ccccc3)(c3ccccc3)c3ccccc3)cc2)cc1 here?
**A.** 0 of 6

**Q.** What about the survivor count (dose: 50.0 mg/kg/injection, schedule: Q04DX003 (ip), vehicle: saline) of the same molecule?
**A.** 0 of 6

**Q.** And the survivor count (dose: 100.0 mg/kg/injection, schedule: Q04DX003 (ip), vehicle: saline)?
**A.** 0 of 6

**Q.** And the survivor count (dose: 200.0 mg/kg/injection, schedule: Q04DX003 (ip), vehicle: saline)?
**A.** 0 of 6

**Q.** And the survivor count (dose: 400.0 mg/kg/injection, schedule: Q04DX003 (ip), vehicle: saline)?
**A.** 0 of 6
